Measured values taken from patent US9376395B2 (priority 2011, dated 2016).
At least one structure is not confirmed: it was looked up by name or label, or the drawing left a doubt.

System: imatinib-resistant Philadelphia chromosome-positive acute lymphoblastic leukemia (Ph+ ALL) model
Assay type: in vivo
Settings: single dose 60 mpk, vs bendamustine, SAHA, VCR, Dox, AraC, CTX each at MTD

In the case of `Cn1c(CCCCCCC(=O)NO)nc2cc(N(CCCl)CCCl)ccc21` [NL-101], the “in vivo efficacy versus comparators” value is reported as “significantly better in vivo efficacy”.
